# Assay results reported in PubChem BioAssay AID1487 (National Center for Advancing Translational Sciences (NCATS), 2009).
# “And” between values parts separate entries of the source, which are not always exact repeats. Identical values can stand only once. This is one part of the list. The main result of the screen is listed elsewhere. These columns were measured beside it and carry no call. Most of these compounds were active or inconclusive in the main read-out, so they are no random draw. The note in brackets gives the kind of curve behind each potency; many fits are weak.
# Experiment: qHTS Assay for Modulators of Lamin A Splicing
# Conditions: HeLa LMNA splicing GFP/RFP minigene ratio, 48 h
# Procedure, shortened: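 S3 HeLa cells stably expressing lamin A-EGFP splicing minigene plus DsRed2, 600 cells/well, 48 h compound exposure at 37C. Laser-scanning cytometry; analysed as GFP (500-530 nm)/RFP (575-640 nm) total intensity ratio; 0.5% DMSO vehicle.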
# [1] = measured here: GFP splicing reporter channel
# [2] = measured here: RFP viability control channel
Compound,AC50 [1],AC50 [2]
CCOc1ccc(NC(=O)NCCCSC2CCCCC2)cc1,"17.8 µM [rising, single point]","20 µM [rising, single point]"
CCC(C)NCC(=O)Nc1cc(S(=O)(=O)N(CC)c2ccccc2)ccc1Cl (configuration not stated),–,"35.5 µM [rising, single point]"
CCOc1ccc(-n2c(=O)c3sccc3n(CC(=O)Nc3cccc(OC)c3)c2=O)cc1,–,"3.16 µM [rising, partial curve, poor fit]"
COc1ccc(NC(=O)COCc2cc(-c3cccs3)on2)cc1,"3.16 µM [rising, single point]",–
CC12CCC(C1)C(C)(C)C2=O (configuration not stated),"0.00631 µM [falling, full curve, poor fit]",–
Oc1ccc(-c2[nH]ncc2-c2cccc3cccnc23)c(O)c1,–,"22.4 µM [rising, single point]"
Nc1c(C(=O)NCCN2CCOCC2)c2nc3ccccc3nc2n1CCc1ccccc1,–,"35.5 µM [rising, single point]"
COc1ccc(NC(=O)CC2C(=O)N(c3ccc(OC)cc3)C(=S)N2NC(=O)c2cccc(F)c2)cc1 (configuration not stated),"35.5 µM [falling, single point]","17.8 µM [falling, single point]"
CCOC(=O)c1cccc(NC(=O)C2CCN(S(=O)(=O)c3cn(C)cn3)CC2)c1,"1.78 µM [falling, full curve, poor fit]","0.158 µM [falling, full curve, poor fit]"
CCCc1c(NC(=O)Nc2ccc(Cl)cc2Cl)cnn1-c1ccccc1,"7.08 µM [falling, partial curve, poor fit]","22.4 µM [falling, partial curve, poor fit]"
COc1ccc(N=C2S/C(=C\c3ccc(N4CCOCC4)o3)C(=O)N2CCc2c[nH]c3ccccc23)cc1,"10 µM [falling, partial curve]","7.08 µM [falling, partial curve]"
CC(C)(C)OC(=O)N1CCC(c2c(C(=O)NCCN3CCC(Cc4ccccc4)CC3)cnn2-c2ccccc2)CC1,"20 µM [falling, single point]","22.4 µM [falling, single point]"
CCc1ccc(NC(=O)N2CC(C)Oc3ccc(C)cc32)cc1 (configuration not stated),"12.6 µM [falling, partial curve, poor fit]","12.6 µM [falling, partial curve, poor fit]"
Cc1nc(-c2ccccc2)cn2c1nc1ccccc12,–,"0.0501 µM [rising, full curve, poor fit]"
O=C(O)/C=C/C(=O)N1CCN(c2ccc(F)cc2)CC1,–,"0.00316 µM [rising, full curve, poor fit]"
O=S(=O)(c1ccc(Cl)cc1)N1CCN=C1SCc1cccc(Cl)c1,"35.5 µM [rising, single point]","35.5 µM [rising, partial curve]"
O=C(OCn1nnc2ccccc2c1=O)c1ccc2ncsc2c1,–,"4.47 µM [rising, single point]"
Cc1cccc(N2CCN(C(=S)NCc3ccco3)CC2)c1C,"35.5 µM [rising, single point]","35.5 µM [rising, single point]"
OC1CCN(c2ncnc3nc[nH]c23)CC1,"10 µM [rising, single point]","11.2 µM [rising, partial curve]"
O=C(c1cccc(Cl)c1)C1CCCN(Cc2ccc(N3CCNC3=O)cc2)C1 (configuration not stated),–,"5.01 µM [falling, partial curve, poor fit]"
CC(C)C1C(C#N)=C(N)Oc2n[nH]c(-c3ccc4ccccc4c3)c21 (configuration not stated),–,"3.55 µM [rising, full curve]"
CC(CCc1ccc(O)cc1)NCCc1ccc(O)c(O)c1 (configuration not stated),"891 nM [falling, single point] and 35.5 µM [falling, single point]","35.5 µM [falling, single point]"
CC(C)S(=O)(=O)c1csc(NC(=O)Nc2cc(Cl)ccc2Cl)c1Cl,"35.5 µM [falling, single point]","25.1 µM [falling, partial curve, poor fit]"
COC(=O)c1ccc2c(c1)C(C)(C)C(/C=C/c1ccccc1O)=[N+]2C,"3.16 µM [falling, full curve]","6.31 µM [falling, full curve]"
COc1cccc(CNc2ccc(S(N)(=O)=O)cc2)c1OC,"11.2 µM [rising, single point]","17.8 µM [rising, single point]"
COc1ccc(CNC(=O)COCc2cc(-c3cccs3)on2)cc1,–,"0.02 µM [falling, full curve, poor fit]"
O=C(CCOc1ccccc1)N(Cc1cccnc1)c1nc2c(F)cccc2s1,–,"11.2 µM [falling, partial curve, poor fit]"

Compound,AC50 [1],AC50 [2]
Cc1ccc(C(=O)N(CC(=O)Nc2ccc(Cl)c(Cl)c2)Cc2ccco2)cc1,"35.5 µM [rising, single point]",–
CC(=O)c1cn(CC(=O)NCc2cccnc2)c2ccccc12,–,"14.1 µM [rising, single point]"
c1ccc(Nc2ncnc3ccc(-c4ccoc4)cc23)cc1,"14.1 µM [falling, partial curve]","12.6 µM [falling, partial curve]"
CC(C)(C)c1ccc(C(=O)N2CCC(c3nc4ccccc4o3)CC2)cc1,–,"0.631 µM [falling, partial curve, poor fit]"
CCOC(=O)c1ccc(-n2[nH]c(-c3ccccc3)cc2=O)cc1,"28.2 µM [rising, single point]","15.8 µM [rising, partial curve]"
O=C(CCC1N=C2c3ccccc3N=C(SCc3ccccc3F)N2C1=O)NCc1ccc(F)cc1 (configuration not stated),–,"6.31 µM [falling, full curve]"
Cc1nc(-n2[nH]c3c(c2=O)CCCC3)[nH]c(=O)c1Cc1ccccc1,"22.4 µM [falling, partial curve]",–
COc1ccc(NC(=O)c2c(NCc3cccc(OC)c3)sc3c2CCCC3)cc1,–,"35.5 µM [rising, single point]"
Cc1c(NC(=O)COC(=O)c2ccc(Br)o2)c(=O)n(-c2ccccc2)n1C,"0.0112 µM [rising, full curve, poor fit]","0.0126 µM [rising, full curve, poor fit]"
Clc1ccc(-c2nn3c(-c4ccncc4)nnc3s2)c(Cl)c1,"2.51 µM [rising, single point]",–
COc1cc(NC(=O)C2CCCN(S(=O)(=O)c3cccc4nsnc34)C2)cc(OC)c1 (configuration not stated),"12.6 µM [rising, partial curve]","14.1 µM [rising, partial curve]"
CC1=C(c2ccc(Cl)cc2)S(=O)(=O)N=C1N1CCC(C(=O)NCc2ccccc2F)CC1,"35.5 µM [falling, single point]","0.00794 µM [falling, full curve, poor fit]"
O=C1[C@@H]2[C@@H]3C[C@@H]([C@H]4ON=C(c5ccc(Cl)cc5Cl)[C@@H]34)[C@@H]2C(=O)N1C1CCCCC1,"35.5 µM [rising, single point]","31.6 µM [rising, single point]"
CC1CCCCN1c1nnc(N)s1 (configuration not stated),"31.6 µM [rising, single point]",–
Cc1cccc2nc(-c3cccnc3)c(NCCC(C)C)n12,–,"8.91 µM [falling, partial curve]"
O=C(CSc1ccc2c(c1)OCCO2)Nc1ncc(Cl)cc1Cl,–,"15.8 µM [rising, partial curve]"
COc1cc(/C=N/NC(=O)CCOc2ccccc2C)cc(Br)c1O,"20 µM [falling, partial curve, poor fit]","0.0224 µM [falling, full curve, poor fit]"
O=C(O)c1cccc(N/N=C/c2cccnc2)c1,"0.02 µM [rising, full curve, poor fit]",–
CCCCn1nnc(NC(=O)c2sc3cc(Cl)ccc3c2Cl)n1,–,"12.6 µM [rising, single point]"
COC1=C(Nc2ccc(O)cc2)C(=O)c2ccccc2C1=O,–,"20 µM [rising, single point]"
COc1ccc(S(=O)(=O)N2CCSC2c2ccc(OC)c(OC)c2)cc1 (configuration not stated),–,"28.2 µM [rising, single point]"
COc1cc(NC(=O)CC(C)n2nc(C)cc2C)cc(OC)c1 (configuration not stated),"0.631 µM [falling, partial curve]",–
CCCC1=NN2C(=N)/C(=C\c3cc(C)n(-c4cc(C)cc(C)c4)c3C)C(=O)N=C2S1,"35.5 µM [falling, single point]","35.5 µM [falling, single point]"
Cc1cc(C)c(C)c(OCc2nc(-c3cccnc3)no2)c1,–,"28.2 µM [rising, single point]"
CCCOc1cccc(-c2nn(-c3ccccc3)cc2/C=C(\C#N)C(=O)NCCCn2ccnc2)c1,"22.4 µM [rising, single point]","35.5 µM [rising, single point]"
COc1cccc(C(=O)/C=C/Nc2ccc(S(=O)(=O)Nc3ncccn3)cc2)c1,"3.16 µM [rising, single point]","2.82 µM [rising, single point]"
